Measured values reported in patent US9353146B2, “Acylation derivatives of paridis saponins I, preparation method therefor and application thereof” (HANGZHOU BENSHENG PHARMACEUTICAL CO., LTD., priority 2012, dated 2016).
Some results were stated once for a whole list of compounds, not compound by compound.

How the values were obtained:
Conditions in all cases: compared with Polyphyllin I itself
[1] = test system: NB4 (acute promyelocytic leukemia, AML); experiment: Anti-leukemia cell growth inhibition, MTT method, 72 h; assay type: cell-based, human
Excerpt: (§1) Leukemia cell lines: leukemia cell lines: K562/adr (drug-resistant, chronic myeloid leukemia, CML), NB4 (acute promyelocytic leukemia, AML), and Kasumi-1 (acute myeloid leukemia M2 type, AML-M2), all of which were donated by Cancer Research Institute of Zhejiang University, China.
(§2) 6000 well-growing leukemia cells were obtained and inoculated into wells of a 96-well cell culture plate. The culture medium used was the 1640 cell culture medium containing 10% fetal bovine serum. After adding the Polyphyllin I derivatives with 5′-acylated arabinofuranosyl of different concentrations and mixing uniformly, the plate was placed in a carbon dioxide cell incubator (5% CO2) at 37° C. and incubated for 72 hours. Then the viable cell concentration was determined by the MTT method. In this experiment, the cell viability in control group (not treated with any compound) is set as 100%. On such basis, the cell viability (%) after treatment of the compound and the 50% inhibiting concentration for the leukemia cell growth at 72 hours (IC50 value and IC90 value of 72 hours) were calculated.

[2] = test system: K562/adr (drug-resistant, chronic myeloid leukemia, CML); experiment: as above; assay type: cell-based, human
Excerpt: as §1, §2

A549 (human lung cancer) = experiment: Anti-human solid tumor cell growth inhibition, MTT method, 72 h; assay type: cell-based
Excerpt: Human solid tumor cell lines: A549 (human lung cancer) and SK-OV-3 (ovarian cancer cell), all of which are purchased from China Center For Type Culture Collection; RKO (human colon adenocarcinoma cell) and MG-63 (osteosarcoma), all of which are purchased from Fuxiang Bio-tech Co. Ltd., Shanghai, China; Hela (human cervical cancer cell), donated by Cancer Research Institute of Zhejiang University, China.
4000 well-growing human solid tumor cells were obtained and inoculated into wells of a 96-well cell culture plate. The culture medium used was DMEM High Glucose cell culture medium containing 10% fetal bovine serum. The plate is placed in a carbon dioxide cell incubator (5% CO2) at 37° C. and incubated for 24 hours. After adding the Polyphyllin I derivatives with 5′-acylated arabinofuranosyl group of different concentrations and mixing uniformly, the plate was continued to be placed in a carbon dioxide cell incubator (5% CO2) at 37° C. and incubated for 72 hours. Then the viable cell concentration was determined by the MTT method and the cell viability (%) after drug treatment was calculated. In this experiment, the cell viability of control group (not treated with any compound) is set as 100%.

[3] = test system: H9 (acute lymphoblastic leukemia, ALL); experiment: Anti-leukemia cell growth inhibition, MTT method, 72 h; assay type: cell-based, human

C[C@@H]1CC[C@@]2(OC1)OC1CC3C4CC=C5C[C@@H](O[C@@H]6O[C@H](CO)[C@@H](OC7O[C@@H](COC(=O)c8ccc(F)cc8F)[C@H](O)[C@H]7O)[C@H](O)[C@H]6OC6O[C@@H](C)[C@H](O)[C@@H](O)[C@H]6O)CC[C@]5(C)C4CC[C@]3(C)C1[C@@H]2C (some centres unmarked) [BS-PP-08]
more than 2 fold: improvement of anti-NB4 activity [1] | improvement of anti-K562/adr activity [2] | improvement of anti-A549 activity (A549 (human lung cancer)) | improvement of anti-H9 activity [3]

C[C@@H]1CC[C@@]2(OC1)OC1CC3C4CC=C5C[C@@H](O[C@@H]6O[C@H](CO)[C@@H](OC7O[C@@H](COC(=O)c8ccc(F)cc8)[C@H](O)[C@H]7O)[C@H](O)[C@H]6OC6O[C@@H](C)[C@H](O)[C@@H](O)[C@H]6O)CC[C@]5(C)C4CC[C@]3(C)C1[C@@H]2C (some centres unmarked) [BS-PP-06]
more than 2 fold: improvement of anti-NB4 activity [1] | improvement of anti-H9 activity [3]

CC(=O)OC[C@@H]1OC(O[C@H]2[C@H](O)[C@@H](OC3O[C@@H](C)[C@H](O)[C@@H](O)[C@H]3O)[C@H](O[C@H]3CC[C@@]4(C)C(=CCC5C6CC7O[C@]8(CC[C@@H](C)CO8)[C@@H](C)C7[C@@]6(C)CCC54)C3)O[C@@H]2CO)[C@H](O)[C@H]1O (some centres unmarked) [BS-PP-11]
more than 2 fold: improvement of anti-NB4 activity [1] | improvement of anti-K562/adr activity [2] | improvement of anti-A549 activity (A549 (human lung cancer)) | improvement of anti-H9 activity [3]

C[C@@H]1CC[C@@]2(OC1)OC1CC3C4CC=C5C[C@@H](O[C@@H]6O[C@H](CO)[C@@H](OC7O[C@@H](COC(=O)c8ccco8)[C@H](O)[C@H]7O)[C@H](O)[C@H]6OC6O[C@@H](C)[C@H](O)[C@@H](O)[C@H]6O)CC[C@]5(C)C4CC[C@]3(C)C1[C@@H]2C (some centres unmarked) [BS-PP-10]
more than 2 fold: improvement of anti-NB4 activity [1] | improvement of anti-K562/adr activity [2] | improvement of anti-A549 activity (A549 (human lung cancer)) | improvement of anti-H9 activity [3]

C[C@@H]1CC[C@@]2(OC1)OC1CC3C4CC=C5C[C@@H](O[C@@H]6O[C@H](CO)[C@@H](OC7O[C@@H](COC(=O)c8ccncc8)[C@H](O)[C@H]7O)[C@H](O)[C@H]6OC6O[C@@H](C)[C@H](O)[C@@H](O)[C@H]6O)CC[C@]5(C)C4CC[C@]3(C)C1[C@@H]2C (some centres unmarked) [BS-PP-04]
more than 2 fold: improvement of anti-NB4 activity [1] | improvement of anti-K562/adr activity [2] | improvement of anti-A549 activity (A549 (human lung cancer)) | improvement of anti-H9 activity [3]

C[C@@H]1CC[C@@]2(OC1)OC1CC3C4CC=C5C[C@@H](O[C@@H]6O[C@H](CO)[C@@H](OC7O[C@@H](COC(=O)C8CC8)[C@H](O)[C@H]7O)[C@H](O)[C@H]6OC6O[C@@H](C)[C@H](O)[C@@H](O)[C@H]6O)CC[C@]5(C)C4CC[C@]3(C)C1[C@@H]2C (some centres unmarked) [BS-PP-12]
more than 2 fold: improvement of anti-K562/adr activity [2] | improvement of anti-A549 activity (A549 (human lung cancer))
